We go through one substance from paper PMC12371199, “Identification of c‐Met on Tumor Cells as a Novel Receptor for B7‐H3 Entails Implications for Cancer Cell Stemness and Targeted Therapy” (MedComm, 2025).

Amino acid sequences for entries named in this document (tags omitted). Residues count along the entry.
UniProt P08581, residues 25-1390: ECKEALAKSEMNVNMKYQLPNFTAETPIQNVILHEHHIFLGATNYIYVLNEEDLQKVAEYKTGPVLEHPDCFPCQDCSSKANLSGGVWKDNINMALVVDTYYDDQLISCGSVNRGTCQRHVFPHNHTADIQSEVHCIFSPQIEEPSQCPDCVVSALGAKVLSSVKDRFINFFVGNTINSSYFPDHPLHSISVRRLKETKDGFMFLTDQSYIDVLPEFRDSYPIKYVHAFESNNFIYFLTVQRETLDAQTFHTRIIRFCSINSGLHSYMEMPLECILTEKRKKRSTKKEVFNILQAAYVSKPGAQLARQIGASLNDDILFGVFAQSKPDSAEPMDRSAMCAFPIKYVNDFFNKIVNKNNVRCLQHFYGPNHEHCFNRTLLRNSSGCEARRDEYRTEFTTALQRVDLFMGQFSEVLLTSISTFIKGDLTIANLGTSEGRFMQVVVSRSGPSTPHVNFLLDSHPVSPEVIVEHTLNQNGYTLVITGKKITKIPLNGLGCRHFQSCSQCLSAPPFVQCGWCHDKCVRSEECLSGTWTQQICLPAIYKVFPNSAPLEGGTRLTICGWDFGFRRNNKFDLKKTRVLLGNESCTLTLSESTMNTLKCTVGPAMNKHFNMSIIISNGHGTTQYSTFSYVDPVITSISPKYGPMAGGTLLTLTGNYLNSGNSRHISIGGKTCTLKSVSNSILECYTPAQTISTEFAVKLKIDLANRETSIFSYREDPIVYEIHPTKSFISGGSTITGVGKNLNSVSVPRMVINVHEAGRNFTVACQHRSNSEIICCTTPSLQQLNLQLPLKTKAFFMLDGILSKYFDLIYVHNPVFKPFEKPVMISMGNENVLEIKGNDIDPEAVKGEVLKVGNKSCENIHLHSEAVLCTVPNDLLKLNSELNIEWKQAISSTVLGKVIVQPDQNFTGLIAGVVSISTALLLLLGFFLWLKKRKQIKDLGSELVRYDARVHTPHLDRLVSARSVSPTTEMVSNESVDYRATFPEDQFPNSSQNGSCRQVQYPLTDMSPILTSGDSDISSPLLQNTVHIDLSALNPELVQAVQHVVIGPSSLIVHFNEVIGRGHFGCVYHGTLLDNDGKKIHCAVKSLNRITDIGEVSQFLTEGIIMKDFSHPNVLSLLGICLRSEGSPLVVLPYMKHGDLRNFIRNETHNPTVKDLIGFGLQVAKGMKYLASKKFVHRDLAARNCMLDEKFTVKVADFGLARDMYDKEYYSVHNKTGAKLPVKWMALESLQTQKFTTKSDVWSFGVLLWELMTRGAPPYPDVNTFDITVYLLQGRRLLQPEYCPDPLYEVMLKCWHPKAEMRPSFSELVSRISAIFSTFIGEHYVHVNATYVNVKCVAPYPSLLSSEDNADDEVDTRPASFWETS

The assay has as its target T1, HA‐strep tagged B7‐H3 (human) (UniProt Q5ZPR3).
T1 sequence: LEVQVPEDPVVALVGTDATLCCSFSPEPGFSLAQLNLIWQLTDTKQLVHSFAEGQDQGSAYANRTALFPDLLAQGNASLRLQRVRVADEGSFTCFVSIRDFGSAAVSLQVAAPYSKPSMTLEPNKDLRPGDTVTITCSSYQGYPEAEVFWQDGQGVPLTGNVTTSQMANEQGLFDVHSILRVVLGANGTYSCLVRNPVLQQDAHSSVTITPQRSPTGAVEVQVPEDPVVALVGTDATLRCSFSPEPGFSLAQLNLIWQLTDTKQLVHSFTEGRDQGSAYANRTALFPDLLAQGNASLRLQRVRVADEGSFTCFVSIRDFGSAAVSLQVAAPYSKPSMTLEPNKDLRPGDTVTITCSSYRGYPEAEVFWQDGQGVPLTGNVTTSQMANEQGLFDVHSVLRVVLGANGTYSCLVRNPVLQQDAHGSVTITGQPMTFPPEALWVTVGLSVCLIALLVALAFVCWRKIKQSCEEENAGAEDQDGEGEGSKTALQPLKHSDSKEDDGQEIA
As to the kind of experiment: affinity purification with mass spectrometry; TAP‐tag system overexpressing HA‐strep tagged B7‐H3 in cancer cells, followed by mass spectrometry.

These are yes or no findings as the source states them, for the method shown. Binding seen in cells or lysates may run through a third protein. A yes stands for co-enrichment or nearness to the bait. Other partners may have been found. Where a sequence is shown, tags or fusion partners need not be part of it.

As to “c‐Met (endogenous, in tumor cell lines) (from UniProt P08581 25-1390) (receptor)”, the binding entry is “binds”.
